Data from publication PMC8514465, “Functional and structural analysis of catabolite control protein C that responds to citrate” (Scientific Reports, 2021).
The exact form of at least one protein or probe is not confirmed. A negative result means that nothing was seen under these conditions. Protein sequences can lack the tags named with them. A weaker result is weaker than the reference pair of the same experiment.

Biological target: T1, BaCcpC-FL (Bacillus amyloliquefaciens) (UniProt A0A9P1JGF9)
T1 sequence (looked up): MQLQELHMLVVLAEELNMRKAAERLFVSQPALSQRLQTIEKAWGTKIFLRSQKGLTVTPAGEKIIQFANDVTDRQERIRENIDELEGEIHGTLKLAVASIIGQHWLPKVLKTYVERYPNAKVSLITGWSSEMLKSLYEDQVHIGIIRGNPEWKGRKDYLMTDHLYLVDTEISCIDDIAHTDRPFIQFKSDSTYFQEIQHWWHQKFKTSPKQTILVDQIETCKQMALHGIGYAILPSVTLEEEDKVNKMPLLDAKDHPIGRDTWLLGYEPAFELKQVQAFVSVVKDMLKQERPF
Assay: EMSA
Conditions: 800 nM DNA, EMSA at room temperature, 30 min, 6% acrylamide gel in 0.5x TBE on ice, binding buffer not stated (Beyotime chemiluminescent EMSA kit), recombinant protein, residues 1-293, protein details: N-terminal His6 tag, removed with TEV protease, label: biotin

Sequence: TGATAAGACGATCTTATTGT (double strand) [citB-PI]
- binding result (40 uM protein): no binding

Sequence: TGATAAGACGATCTTATTGTATTTAATAAAAACATTGATATTTACTTATGTATGAT (double strand) [citB-P]
- binding result (2.5-40 uM protein, complete shift as protein increases): binds
- binding result (sodium citrate (0-70 uM as printed), 40 uM protein, slightly suppressed): binds more weakly

Sequence: TGATATTTACTTATGTATGAT (double strand) [citB-PII]
- binding result (40 uM protein): no binding
